Common to all, as to test: co-IP; HEK293 cells 36 h after transfection of the indicated plasmids, NP-40 lysis buffer; FLAG-M2 magnetic beads overnight at 4°C, washed four to five times with lysis buffer; western blotting
A general note: A western blot detects proteins with antibodies after separation by electrophoresis.

In experiment [1] the target is T1, FLAG-tagged MOS Arg246His variant (human) (UniProt P00540).
T1 sequence: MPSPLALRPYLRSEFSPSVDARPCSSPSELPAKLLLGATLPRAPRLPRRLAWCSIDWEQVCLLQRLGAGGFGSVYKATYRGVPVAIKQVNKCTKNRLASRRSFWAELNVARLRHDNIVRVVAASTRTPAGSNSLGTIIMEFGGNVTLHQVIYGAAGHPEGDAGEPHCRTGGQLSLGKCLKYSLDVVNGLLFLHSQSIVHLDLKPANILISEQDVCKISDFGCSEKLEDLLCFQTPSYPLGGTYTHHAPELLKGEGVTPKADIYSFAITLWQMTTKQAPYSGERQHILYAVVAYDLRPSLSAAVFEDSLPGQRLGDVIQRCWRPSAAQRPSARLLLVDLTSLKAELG

For experiment [2], the target named is T2, FLAG-tagged MOS Asn95Lys variant (human) (UniProt P00540).
T2 sequence: T1 sequence with N95K, H246R

Experiment [3] deals with T3, FLAG-tagged MOS Cys320Ter variant (human) (UniProt P00540).
T3 sequence: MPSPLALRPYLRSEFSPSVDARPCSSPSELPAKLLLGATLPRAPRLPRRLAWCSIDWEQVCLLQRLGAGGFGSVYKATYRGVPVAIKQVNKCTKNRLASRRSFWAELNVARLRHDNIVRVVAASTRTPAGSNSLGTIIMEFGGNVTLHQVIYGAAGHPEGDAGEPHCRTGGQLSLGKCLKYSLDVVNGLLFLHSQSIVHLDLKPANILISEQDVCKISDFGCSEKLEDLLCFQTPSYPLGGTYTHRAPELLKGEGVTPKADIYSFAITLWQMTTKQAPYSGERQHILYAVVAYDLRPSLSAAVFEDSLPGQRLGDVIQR

The target of experiment [4] is T4, FLAG-tagged wild-type MOS (Moloney sarcoma oncogene, serine/threonine kinase) (human) (UniProt P00540).
T4 sequence: T1 sequence with H246R

Changes are numbered by the printed parent chain. These are yes or no findings as the source states them, for the method shown. Binding seen in cells or lysates may run through a third protein. Some entries that bind do so weakly or less than the wild type. Where a sequence is shown, tags or fusion partners need not be part of it.

Regarding “MEK1 (from UniProt Q02750 1-393) (enzyme)”, the binding result in experiment [1] is “binds”; in experiment [2], “binds”; in experiment [3], “binds weakly”; in experiment [4] it was “binds”.

The record behind these values is PMC8649871.
